Assay results: PubChem BioAssay AID1688 (National Center for Advancing Translational Sciences (NCATS), 2009)
Screen size: about 220,000 compounds; about 2,400 (1.1%) were called active. The inconclusive results got no clear call from the source; some entries with a clear call stand among them for comparison. Calls follow the shape of the dose curve; as a rule, active = well fitted inhibition curve with a large enough effect; inconclusive = small, poorly fitted or top-dose-only effect, or effect the other way; inactive = no such curve, though single readings can be large or run the other way. Where the call is inconclusive, the potency comes from a doubtful curve fit. Where a structure was tested more than once in an assay, its records may differ in their call.

test: qHTS Multiplex Assay to Identify Dual Action Probes in a Cell Model of Huntington: Aggregate Formation (GFP); conditions: PC12 HttQ103-GFP aggregates, Acumen cytometry, 40 h; activity change, negative = inhibition: at 46.1 µM (top of the series) unless noted; also: nearly all actives have a fitted effect of over 60% in size
Summary of the method: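 Ecdysone-promoter PC12 model expressing HTT exon 1 Q103 fused to GFP, induced by tebufenozide at 100 nM final. Compounds titrated; aggregates sized 1–25 µm scored on a 488 nm laser cytometer.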
% is scaled to controls: 0 for no effect and ±100 for the full control effect; potency is read from the fitted curve at half-maximal effect.

| SMILES | activity change, negative = inhibition | Potency |
| --- | --- | --- |
| CC(=O)c1c(C(C)=O)c(C)n(-c2ccc3ncccc3c2)c1C | inactive: -0.831% [at 9.22 µM] |  |
| C=CCNC(=S)N1CCN(c2ccc([N+](=O)[O-])cc2)CC1 | inactive: 23.2% [at 9.22 µM] |  |
| NS(=O)(=O)c1ccc(CCNC(=O)c2ccc3nc4ccc(Cl)cc4c(=O)n3c2)cc1 | inactive: -21.9% |  |
| Cc1ccc(NC2=C(CC(=O)O)C(c3ccccc3)N(c3ccc(C)cc3)C2=O)cc1 (stereo not given) | inactive: -4.69% |  |
| Cc1nc2nc(-c3ccccc3)[nH]n2c(=O)c1C | inactive: -14.8% |  |
| O=C(CNc1ccc(Br)cc1)c1ccc(O)cc1 | inactive: 14.5% |  |
| CC(=O)Nc1ccc(S(=O)(=O)NCC(=O)NCCc2ccc(S(N)(=O)=O)cc2)cc1 |  | inconclusive: 35.5 µM [activator, partial curve, poor fit] |
| Cc1nnc(SC(C(=O)Nc2ccc(Cl)c([N+](=O)[O-])c2)c2ccccc2)[nH]c1=O (stereo not given) |  | inconclusive: 35.5 µM [activator, single point] |
| CCOC(=O)c1ccc(Nc2nnc(C(C)(C)C)c(=O)[nH]2)cc1 |  | inconclusive: 31.6 µM [inhibitor, single point] |
| COc1ccc(NS(=O)(=O)c2ccc(N3CC(O)=C(c4ccccc4)C3=N)cc2)cc1 | inactive: -2.88% [at 9.22 µM] |  |
| CC[C@H](C)[C@H](NC(=O)c1ccc(Cl)cc1)C(=O)OCC(=O)c1ccc2c(c1)NC(=O)CO2 |  | inconclusive: 35.5 µM [inhibitor, single point] |
| Cc1ccc(NC(=O)Nc2cccc([N+](=O)[O-])c2)cc1F |  | inconclusive: 0.562 µM [activator, full curve, poor fit] |
| CC(C)c1ccc(NC(=O)COC(=O)/C=C/c2cccc(Br)c2)cc1 |  | inconclusive: 2.51 µM [inhibitor, partial curve] |
| CC(C)CCNC(=O)c1ccc2nc[nH]c2c1 |  | inconclusive: 0.562 µM [inhibitor, full curve, poor fit] |
| Cc1ccc2nc(N3CCOCC3)c(C=O)c(=O)n2c1 | inactive: -7.89% [at 9.22 µM] |  |
| CCOCc1c(C(=O)NC2=Nc3ccccc3NC(CC)=C2C(=O)OCC)oc2ccccc12 |  | inconclusive: 11.2 µM [inhibitor, single point] |
| O=C(CSc1nnnn1C1CCCC1)NCc1ccc2c(c1)OCO2 | inactive: 2.61% |  |
| CC(C)NC(=O)C1CCN(C(=O)c2cc3sccc3n2Cc2ccc(F)cc2)CC1 |  | inconclusive: 31.6 µM [inhibitor, single point] |
| COCCN(C(=O)CSc1nnc(-c2ccccc2C)n1C)c1c(N)n(Cc2ccccc2)c(=O)[nH]c1=O | inactive: 20.6% |  |
| CCc1nnc(NC(=O)CSc2nc3ccccc3o2)s1 |  | inconclusive: 3.55 µM [activator, single point] |
| COc1ccc(C2CC(c3ccc4ccccc4c3)=NN2C(=O)CSc2ncccn2)cc1 (stereo not given) |  | inconclusive: 3.55 µM [inhibitor, single point] |
| CC1CCCCN1C(=O)CSc1nnc(-c2ccc(Cl)s2)o1 (stereo not given) | inactive: -27.3% |  |
| CCCCCCCCCCCCCCCCn1cc[n+](C)c1 | inactive: -12.6% [at 9.22 µM] | active: 12.6 µM |

Whole records, quoted from the list.
`Cc1nc2nc(-c3ccccc3)[nH]n2c(=O)c1C` reads activity change, negative = inhibition: inactive: -14.8%
`CCOC(=O)c1ccc(Nc2nnc(C(C)(C)C)c(=O)[nH]2)cc1` reads Potency: inconclusive: 31.6 µM [inhibitor, single point]
`COc1ccc(C2CC(c3ccc4ccccc4c3)=NN2C(=O)CSc2ncccn2)cc1` (stereo not given) reads Potency: inconclusive: 3.55 µM [inhibitor, single point]
`CC(C)NC(=O)C1CCN(C(=O)c2cc3sccc3n2Cc2ccc(F)cc2)CC1` reads Potency: inconclusive: 31.6 µM [inhibitor, single point]

Remaining list, next part:

| SMILES | activity change, negative = inhibition | Potency |
| --- | --- | --- |
| COc1cc(OC)c(OC)cc1CN1CCN(c2ccc(F)cc2)CC1 | inactive: 0.823% [at 9.22 µM] |  |
| Cc1ccccc1-n1c(SCc2ccccn2)nc2n[nH]c(C)c2c1=N |  | inconclusive: 11.2 µM [inhibitor, single point] |
| COc1ccc(-c2cc(OC)c3c(C)oc(C)c3c(=O)c2)cc1OC |  | inconclusive: 35.5 µM [activator, single point] |
| COC(=O)c1ccccc1NC(=O)COC(=O)c1ccccc1N=Nc1ccc(N(C)C)cc1 |  | active: 6.31 µM |
| N#C/C(=C\c1c(Cl)cccc1Cl)c1nc2ccccc2o1 |  | inconclusive: 12.6 µM [activator, partial curve] |
| CN(C)S(=O)(=O)c1ccc(NC(=O)COc2ncnc3c2cnn3-c2ccccc2)cc1 |  | inconclusive: 3.98 µM [inhibitor, single point] |
| CCC(C(=O)OCC(=O)Nc1ccccc1-c1ccccc1)c1ccccc1 (stereo not given) |  | inconclusive: 35.5 µM [activator, single point] |
| Cc1cc(S(=O)(=O)NCC(C)C)ccc1OCC(=O)NCc1ccco1 |  | inconclusive: 0.501 µM [activator, full curve, poor fit] |
| Cc1ccc(-n2c(C)cc(/C=N/NC(=O)CN(c3ccc(C)cc3C)S(C)(=O)=O)c2C)cc1 |  | inconclusive: 1.26 µM [inhibitor, partial curve] |
| COc1cccc(NC(=O)Cn2nnc(C(=O)Nc3ccccc3)c2N)c1 |  | inconclusive: 5.01 µM [inhibitor, single point] |
| CC(C)c1ccc(S(=O)(=O)c2n[nH]n3c2nc(=O)c2ccccc23)cc1 |  | inconclusive: 12.6 µM [inhibitor, single point] |
| CCN(CC(=O)NCc1ccc(Cl)cc1)CC(=O)Nc1ccc(C(N)=O)cc1 | inactive: 8% |  |
| O=C(N/N=C/c1ccc(-c2ccc(Cl)c(C(=O)O)c2)o1)c1cc2c(ccc3ccccc32)o1 | inactive: -9.5% [at 9.22 µM] |  |
| Cc1cccc(Sc2ccc([N+](=O)[O-])cc2[N+](=O)[O-])n1 |  | inconclusive: 17.8 µM [inhibitor, partial curve, poor fit] |
| O=C(Nc1cccc2nsnc12)c1cccnc1 | inactive: -7.18% |  |
| Nc1ccc(Br)cc1-c1nc2ccccc2[nH]c1=O |  | inconclusive: 5.62 µM [inhibitor, full curve] |
| CCCCCOc1ccc(N2C(=O)C3C4C=CC(C3C2=O)N(C)C4=O)cc1 (stereo not given) |  | inconclusive: 22.4 µM [inhibitor, partial curve] |
| Cn1c(SCC(=O)N2CCN(c3ccccc3)CC2)nnc1-c1ccco1 | inactive: 16.8% |  |
| S=C(Nc1cccc(Br)c1)c1ccccc1 | inactive: -10.5% |  |
| C=CCOc1nc2c(c(=O)n(C)c(=O)n2C)n1Cc1ccc(Cl)cc1Cl |  | inconclusive: 10 µM [inhibitor, partial curve, poor fit] |
| O=C(c1ccc(-c2ccccc2)c(F)c1)C1CCCN(C(=O)c2cncs2)C1 (stereo not given) |  | inconclusive: 35.5 µM [inhibitor, single point] |
| COc1ccc(Nc2nc(-c3ccccc3)cs2)cc1 | inactive: 15.7% |  |
| Cc1cccc(C(=O)NC(=S)Nc2ccc(S(=O)(=O)N3CCN(C)CC3)cc2)c1 | inactive: -3.04% |  |

| SMILES | activity change, negative = inhibition | Potency |
| --- | --- | --- |
| COc1cc(/C=N/NS(=O)(=O)c2ccc(C)cc2)ccc1OCc1ccc(C(=O)O)cc1 | inactive: 14.6% |  |
| O=C(CSc1n[nH]c(-c2ccccc2Br)n1)NCCN1C(=O)CSC1=O |  | inconclusive: 3.16 µM [inhibitor, single point] |
| CCCOc1ccc(C(=O)CCN2CCCCC2)cc1 | inactive: 9.9% |  |
| N#Cc1cnc(N)c(Br)c1 |  | inconclusive: 11.2 µM [inhibitor, single point] |
| CCOC(=O)Cn1cnc2c(nnn2Cc2ccc(Cl)cc2)c1=O | inactive: -9.91% |  |
| O=C(CCl)NC(Cc1ccccc1)c1ccccc1 (stereo not given) |  | inconclusive: 14.1 µM [inhibitor, single point] |
| COc1ccc2c(c1)CCC(C)N2C(=O)C(=O)c1c[nH]c2ccccc12 (stereo not given) | inactive: 11.8% [at 9.22 µM] |  |
| COc1ccc(Cc2nn3c(-c4ccccc4OC)nnc3s2)cc1 |  | inconclusive: 10 µM [inhibitor, partial curve] |
| Clc1cccc(Cl)c1/C=C/c1nc2ccccc2[nH]1 |  | inconclusive: 35.5 µM [inhibitor, single point] |
| CCOc1ccc(OCc2ccc(C(=O)N/N=C(\C)c3ccccn3)cc2)cc1 |  | inconclusive: 1.12 µM [inhibitor, full curve] |
| Cc1ccc(Cn2c(SCC(C)C)nc3c2c(=O)n(C)c(=O)n3C)cc1 | inactive: 0.226% |  |
| CC(=O)Nc1ccc(-c2nnc(SCC(=O)c3ccc4c(c3)Cc3ccccc3-4)n2C)cc1 |  | inconclusive: 5.62 µM [inhibitor, single point] |
| O=C(CSc1nnnn1C1CCCCC1)Nc1nc2c(s1)CCCC2 |  | inconclusive: 35.5 µM [inhibitor, single point] |
| CCCc1nc(SCC(=O)N2CCC(Cc3ccccc3)CC2)c2c(=O)n(C)c(=O)n(C)c2n1 |  | active: 25.1 µM |
| Cc1cc(C)nc(NS(=O)(=O)c2ccc(NC(=O)CN3C(=O)S/C(=C\c4ccccc4)C3=O)cc2)n1 |  | inconclusive: 12.6 µM [inhibitor, single point] |
| CCc1ccc(CN(C)C(=O)CCc2nnc(-c3ccc(-c4ccccc4)cc3)o2)nc1 |  | inconclusive: 11.2 µM [inhibitor, partial curve, poor fit] |
| COc1ccc2nc(Nc3nc4ccc(NC(C)=O)cc4s3)sc2c1 |  | inconclusive: 10 µM [activator, partial curve] |
| Cc1cc(=O)n(C)c(=O)n1CCCNc1ccccc1 |  | inconclusive: 35.5 µM [inhibitor, single point] |
| CC1=CC(=NOC(=O)c2cccc([N+](=O)[O-])c2)C=C(C)C1=O |  | inconclusive: 2.51 µM [activator, partial curve, poor fit] |
| C=CCNC(=S)N1CCN(CCN=CC2=C(O)CC(c3ccc(Cl)cc3)CC2=O)CC1 (stereo not given) | inactive: -7.5% |  |
| CS(=O)(=O)N(CCc1ccccc1)CC(=O)N1CCN(Cc2ccc3c(c2)OCO3)CC1 |  | inconclusive: 14.1 µM [inhibitor, partial curve, poor fit] |
| CC1=C(CC(=O)c2ccccc2)C(=O)c2ccccc2C1=O |  | inconclusive: 35.5 µM [inhibitor, single point] |
| CN1/C(=C\C(=O)c2cccnc2Cl)C(C)(C)c2ccccc21 | inactive: -10.9% |  |

2 of the compounds above, with tabs.
SMILES	activity change, negative = inhibition	Potency
CS(=O)(=O)N(CCc1ccccc1)CC(=O)N1CCN(Cc2ccc3c(c2)OCO3)CC1		inconclusive: 14.1 µM [inhibitor, partial curve, poor fit]
CC1=C(CC(=O)c2ccccc2)C(=O)c2ccccc2C1=O		inconclusive: 35.5 µM [inhibitor, single point]
